{"source": "PubChem BioAssay AID1259424 – University of Nebraska Medical Center – 2018", "test": "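Seek colon cancer survival genes behaving like KSR1, using a six-gene signature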 (primary screen)", "system": "human HCT116 colon cancer cells", "reagent": "siRNA pool against human genes, 50 nM", "read-out": "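Six signature mRNAs by branched-DNA multiplex assay, scaled to two housekeeping genes and non-targeting median, log2; matched to mean KSR1 knockdown profile by Pearson correlation and euclidean distance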", "direction": "mean correlation with KSR1 profile: higher = expression change more like KSR1 knockdown", "note": "In all, the deposit lists about 14,000 reagents; below is a part drawn at random. 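Higher correlation or smaller distance means closer resemblance to KSR1 loss; control wells, including KSR1 knockdowns, recur on many plates.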 Further read-outs or replicates are left out here. The record does not give: the time to read-out."}
{"target gene": "RAI2 (retinoic acid induced 2)", "mean correlation with KSR1 profile": -0.354}
{"target gene": "RNF24 (ring finger protein 24)", "mean correlation with KSR1 profile": -0.495}
{"target gene": "SLAMF1 (signaling lymphocytic activation molecule family member 1)", "mean correlation with KSR1 profile": 0.0112}
{"target gene": "DOT1L (DOT1 like histone lysine methyltransferase)", "mean correlation with KSR1 profile": 0.382}
{"target gene": "MSL3 (MSL complex subunit 3)", "mean correlation with KSR1 profile": -0.64}
{"target gene": "AMDHD2 (amidohydrolase domain containing 2)", "mean correlation with KSR1 profile": 0.346}
{"target gene": "ENPEP (glutamyl aminopeptidase)", "mean correlation with KSR1 profile": 0.0367}
{"target gene": "INA (internexin neuronal intermediate filament protein alpha)", "mean correlation with KSR1 profile": -0.144}
{"target gene": "TIMM13 (translocase of inner mitochondrial membrane 13)", "mean correlation with KSR1 profile": 0.14}
{"target gene": "CNIH4 (cornichon family member 4)", "mean correlation with KSR1 profile": 0.0554}
{"target gene": "UBTD1 (ubiquitin domain containing 1)", "mean correlation with KSR1 profile": 0.199}
{"target gene": "FANCG (FA complementation group G)", "mean correlation with KSR1 profile": 0.0848}
{"target gene": "ABCC4 (ATP binding cassette subfamily C member 4 (PEL blood group))", "mean correlation with KSR1 profile": 0.663}
{"target gene": "SPTLC2 (serine palmitoyltransferase long chain base subunit 2)", "mean correlation with KSR1 profile": 0.54}
{"target gene": "MBD5 (methyl-CpG binding domain protein 5)", "mean correlation with KSR1 profile": 0.335}
{"target gene": "EDA2R (ectodysplasin A2 receptor)", "mean correlation with KSR1 profile": -0.0386}
{"target gene": "ELK3 (ETS transcription factor ELK3)", "mean correlation with KSR1 profile": -0.678}
{"target gene": "FUCA1 (alpha-L-fucosidase 1)", "mean correlation with KSR1 profile": -0.58}
{"target gene": "KCNC3 (potassium voltage-gated channel subfamily C member 3)", "mean correlation with KSR1 profile": -0.216}
{"target gene": "FAAP100 (FA core complex associated protein 100)", "mean correlation with KSR1 profile": 0.855}
{"target gene": "KLHDC2 (kelch domain containing 2)", "mean correlation with KSR1 profile": 0.523}
{"target gene": "RABAC1 (Rab acceptor 1)", "mean correlation with KSR1 profile": 0.643}
{"target gene": "AKAP11 (A-kinase anchoring protein 11)", "mean correlation with KSR1 profile": 0.344}
{"target gene": "HSD17B8 (hydroxysteroid 17-beta dehydrogenase 8)", "mean correlation with KSR1 profile": 0.628}
{"target gene": "SLC35E3", "mean correlation with KSR1 profile": -0.0491}
{"target gene": "NPVF (neuropeptide VF precursor)", "mean correlation with KSR1 profile": 0.895}
{"target gene": "ADGRL4 (adhesion G protein-coupled receptor L4)", "mean correlation with KSR1 profile": 0.466}
{"target gene": "FAM167A (family with sequence similarity 167 member A)", "mean correlation with KSR1 profile": 0.781}

Laid out differently: entries from further up
target gene | mean correlation with KSR1 profile
ELK3 (ETS transcription factor ELK3) | -0.678
FUCA1 (alpha-L-fucosidase 1) | -0.58
KCNC3 (potassium voltage-gated channel subfamily C member 3) | -0.216
FAAP100 (FA core complex associated protein 100) | 0.855
